Measurements from patent publication US20230175069A1, “COMPOSITIONS AND METHODS FOR DETECTING GENE FUSIONS OF ESR1 AND CCDC170 FOR DETERMINING INCREASED RESISTANCE TO ENDOCRINE THERAPY AND FOR CANCER TREATMENT” (UNIVERSITY OF PITTSBURGH-OF THE COMMONWEAL TH SYSTEM OF …, priority 2020, published 2023).

Test system: HER2
Conditions: HCC1428 cells

C[C@]12CC[C@@H]3c4ccc(O)cc4C[C@@H](CCCCCCCCC[S+]([O-])CCCC(F)(F)C(F)(F)F)[C@H]3[C@@H]1CCC2O (stereo partly shown) [fulvestrant]
HER2 protein level (Western blot): upregulated
